In US20080207517A1 (INSTITUT PASTEUR, published 2008):
These are yes or no findings as the source states them, for the method shown. Some results given as binding are weak or reduced against the parent protein; the word gives no strength.

Biological target: T1, CC2 (WT) (murine, N-terminal acetyl group; C-terminal amide)
T1 construct: Forms a trimer at 10 uM in gel filtration; also called CC2 peptide; CC2 wild type
T1 peptide: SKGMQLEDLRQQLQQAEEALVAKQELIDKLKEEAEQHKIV
Experiment: gel filtration (Superdex 75) at 10 µM, self-association

binding: binds
B1: CC2 (WT) (peptide)
peptide: T1 peptide
modifications: N-terminal acetyl group; C-terminal amide
